PubChem BioAssay AID1224830 – NIAID – 2016
The deposit covers about 18,000 reagents; shown is a part drawn at random. About 2,900 of them (16%) count as active. 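Calls are made per well; low scores hint the gene aids the LPS response, high scores that it dampens it.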 Unmarked entries are inactive. Repeated entries: four replicate wells of each siRNA pool. No sequences are given here.

- Test: 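Host factors that control LPS-induced TNF expression in human macrophages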 (primary screen)
- Cells: human THP-1 monocytic leukaemia cells, TNF dual-luciferase reporter clone, PMA-differentiated to macrophage-like cells
- Knock-down reagent: siRNA pool against human genes, 50 nM
- Duration: LPS for 4 h, given about 3 days after siRNA transfection
- Conditions: bacterial LPS (TLR4 ligand), 10 ng/ml
- Read-out: 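TNF firefly reporter luminescence divided by renilla, normalised to the plate median, then turned into a robust z-score for each replicate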
- Scale: TNF reporter robust z-score: higher = stronger TNF reporter response to LPS
- Call rule: 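a well is active when its z-score exceeds 2.8 or falls below -1.5; control wells carry no call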

| Gene | TNF reporter robust z-score |
| --- | --- |
| FNTA | 0.58 |
| FNTA | 1.07 |
| FNTA | -0.37 |
| FNTA | 1.62 |
| MMEL1 | 1.22 |
| MMEL1 | 0.66 |
| MMEL1 | 0.58 |
| MMEL1 | -0.79 |
| CADM3 | -1.35 |
| CADM3 | -0.8 |
| CADM3 | -0.87 |
| CADM3 | -0.43 |
| CDK5RAP2 | 1.17 |
| CDK5RAP2 | 0.83 |
| CDK5RAP2 | 1.3 |
| CDK5RAP2 | 0.56 |
| DEFB130A | -1.19 |
| DEFB130A | -0.21 |
| DEFB130A | 0.59 |
| DEFB130A | 1.17 |
| OR2A14 | -0.27 |
| OR2A14 | -0.03 |
| OR2A14 | 0.05 |
| OR2A14 | 0.12 |
| PRF1 | -0.09 |
| PRF1 | 0.44 |
| PRF1 | 0.63 |
| PRF1 | 1.04 |
| CFAP45 | 0.81 |
| CFAP45 | -0.59 |
| CFAP45 | -0.93 |
| CFAP45 | -0.77 |
| CFAP45 | 1.2 |
| CFAP45 | 1.81 |
| CFAP45 | 1.12 |
| CFAP45 | 1.49 |
| WASHC4 | -1.08 |
| WASHC4 | -0.96 |
| WASHC4 | -0.73 |
| NUFIP2 | 0.58 |
| NUFIP2 | 1.13 |
| NUFIP2 | 1.14 |
| NUFIP2 | 1.11 |
| POP7 | 1.38 |
| POP7 | 0.23 |
| POP7 | 1.87 |
| POP7 | 1.17 |

Next part; the last 14 above are carried over.
| Gene | TNF reporter robust z-score |
| --- | --- |
| CFAP45 | 1.81 |
| CFAP45 | 1.12 |
| CFAP45 | 1.49 |
| WASHC4 | -1.08 |
| WASHC4 | -0.96 |
| WASHC4 | -0.73 |
| NUFIP2 | 0.58 |
| NUFIP2 | 1.13 |
| NUFIP2 | 1.14 |
| NUFIP2 | 1.11 |
| POP7 | 1.38 |
| POP7 | 0.23 |
| POP7 | 1.87 |
| POP7 | 1.17 |
| TMEM163 | 3.52 (active) |
| TMEM163 | 1 |
| TMEM163 | 0.66 |
| TMEM163 | 0.76 |
| C5orf24 | -0.46 |
| C5orf24 | 0.15 |
| C5orf24 | 0.03 |
| C5orf24 | 0.28 |
| NIPA1 | -0.28 |
| NIPA1 | -0.83 |
| NIPA1 | -1.25 |
| NIPA1 | -1.02 |
| SLC10A5 | 0.29 |
| SLC10A5 | 1.7 |
| SLC10A5 | -1.17 |
| SLC10A5 | -1.24 |
| CETN2 | -1.27 |
| CETN2 | -0.93 |
| CETN2 | 0.13 |
| CETN2 | -0.87 |
| PTPA | 1.14 |
| PTPA | 1.27 |
| PTPA | 0.93 |
| PTPA | 0.3 |
| TMEM43 | 1.56 |
| TMEM43 | 1.62 |
| TMEM43 | 1 |
| TMEM43 | 0.45 |
| PRY2 | 0.48 |
| PRY2 | 0.28 |
| PRY2 | 0.3 |
| PRY2 | 0.32 |
| PCDH7 | -0.76 |
| PCDH7 | -0.45 |
| PCDH7 | 0.52 |
| PCDH7 | -0.18 |
| TUBGCP2 | -0.82 |
| TUBGCP2 | -0.08 |
| TUBGCP2 | -0.53 |
| TUBGCP2 | 0.41 |
| ADRA1D | 0.11 |
| ADRA1D | 1.35 |
| ADRA1D | 1.36 |
| ADRA1D | 1.13 |
| SAMD1 | 4.68 (active) |
| SAMD1 | 6.68 (active) |
| SAMD1 | 4.2 (active) |
| SAMD1 | 4.14 (active) |
| SDHC | -1.53 (active) |
| SDHC | -1.44 |
| SDHC | -0.6 |
| SDHC | -1.22 |
| PGAP2 | 0.38 |
| PGAP2 | -0.61 |
| PGAP2 | 0.15 |
| PGAP2 | 0.37 |
| MXRA7 | -0.86 |
| MXRA7 | -0.76 |
| MXRA7 | -0.16 |
| MXRA7 | -0.24 |
| ALKBH6 | 1.12 |
| ALKBH6 | 1.81 |
| ALKBH6 | 0.11 |
| ALKBH6 | 0.91 |
